PubChem BioAssay AID540276 (National Center for Advancing Translational Sciences (NCATS), 2011)
The whole screen tested about 300,000 compounds, of which about 5,400 (1.8%) were called active. This list was built around the results that the source calls inconclusive (neither active nor inactive); the mix of calls is not that of the screen. Calls follow the shape of the full dose curve; tested in HEK293 cells. Potencies of inconclusive entries are doubtful fits and often do not repeat.

Experiment: qHTS for inhibitors of binding or entry into cells for Marburg Virus
Conditions: Marburg virus pseudotyped entry inhibition, cell reporter; activity change, negative = inhibition: at 37.8 µM (top of the series) unless noted
% is scaled to controls: 0 for no effect and ±100 for the full control effect; potency is read from the fitted curve at half-maximal effect.

Structure (SMILES) | Potency | activity change, negative = inhibition
COc1ccc(OC)c(N2C(=O)/C(=C/c3ccco3)C(=O)NC2=S)c1 | active: 10 µM | –
Cc1ccc(NC(=S)Nc2ccc3cn[nH]c3c2)cc1 | – | inactive: -2.73%
COCc1cc(C)nc(SCC(=O)Nc2nc(C)cs2)c1C#N | inconclusive: 8.91 µM [inhibitor, partial curve, poor fit] | –
COc1ccc(/C=N/OCC(=O)N=Nc2c(O)[nH]c3ccc(Br)cc23)cc1 | inconclusive: 31.6 µM [inhibitor, partial curve, poor fit] | –
COc1cc([C@@H](O)CN)ccc1O | inconclusive: 29.1 µM [activator, single point] | –
CCOc1ccc(-c2nnc(SCC(=O)NC(C)(C)C)nc2-c2ccc(OCC)c(OC)c2)cc1OC | inconclusive: 11.2 µM [inhibitor, single point] | –
CC(C(=O)NCCN1CCOCC1)(c1ccccc1)c1ccccc1 | inconclusive: 5.62 µM [inhibitor, single point] | –
COc1ccc(Br)cc1/C=N/NC(=O)c1nc(-c2ccccc2)n2c1CCCCC2 | inconclusive: 22.4 µM [inhibitor, partial curve, poor fit] | –
CCOc1ccc(NC(=O)CN(C)C(=O)c2cc(S(=O)(=O)N3CCCCCC3)ccc2OC)cc1OCC | inconclusive: 3.16 µM [inhibitor, partial curve, poor fit] | –
CCC(C)N(CCNC(=O)c1ccc2c(c1)NC(=O)c1ccccc1S2)C1CCCCC1 (stereo not drawn) | inconclusive: 3.16 µM [inhibitor, single point] | –
O=C(CSc1nnc(NC(=O)c2ccco2)s1)Nc1ccccc1Cl | – | inactive: 7.82% [at 46.1 µM]
Cc1ccc(/C=C/C(=O)Nc2nnc(SCc3ccc(C#N)cc3)s2)o1 | inconclusive: 35.5 µM [inhibitor, single point] | –
O=C(Nc1ccc(Br)cn1)c1ccc([N+](=O)[O-])o1 | inconclusive: 35.5 µM [inhibitor, single point] | –
CCOC(=O)C1CCCN(c2ccc(NC(=O)c3snc4c(=O)[nH]cnc34)cc2)C1 (stereo not drawn) | inconclusive: 6.31 µM [inhibitor, single point] | –
CCS(=O)(=O)N1CCc2cc(C(=O)NCCc3ccccc3)ccc21 | inconclusive: 20 µM [inhibitor, single point] | –
COc1cc(/C=C/C(=O)Nc2cc(C(F)(F)F)ccc2Cl)cc(OC)c1OC | inconclusive: 35.5 µM [inhibitor, single point] | –
COc1ccc(S(=O)(=O)N2CCCCC2)cc1NC(=O)CN1CCN(C(C)=O)CC1 | – | inactive: 4.25% [at 46.1 µM]
NC(=O)Cc1ccc(C(=O)c2ccc(Cl)cc2)s1 | inconclusive: 11.2 µM [activator, partial curve, poor fit] | –

Looked up by structure from the list above:
Structure (SMILES) | Potency | activity change, negative = inhibition
CCS(=O)(=O)N1CCc2cc(C(=O)NCCc3ccccc3)ccc21 | inconclusive: 20 µM [inhibitor, single point] | –
COCc1cc(C)nc(SCC(=O)Nc2nc(C)cs2)c1C#N | inconclusive: 8.91 µM [inhibitor, partial curve, poor fit] | –
